“And” between values parts separate entries of the source, which are not always exact repeats. Identical values can stand only once. The list shows a part of the results. Repeats in this data set agree poorly, so a single value says little.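 U2OS cells expressing ACE2 were combined with U2OS cells expressing full-length spike, and imaging quantified fusion as the fraction of nuclei displaying both cell types' fluorescent markers. Non-toxic compounds with a fusion z-score under -3, i.e., over three standard deviations below the plate's DMSO wells, are called inhibitory hits.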

The assay relates to U2OS ACE2 x SARS-CoV-2 spike co-culture. Description: cell-cell fusion (fraction fused) z-score vs plate DMSO control; higher = more fusion. As to conditions: 30 µM; 5 h; toxicity class: non-toxic, passed QC.
Regarding `CC(C)(C)c1cc(NC(=O)Nc2ccc(-c3cn4c(n3)sc3cc(OCCN5CCOCC5)ccc34)cc2)no1` [Quizartinib (AC220)], the “cell-cell fusion (z-score)” value was inactive: 0.499.

`CC1(C)C2CCC1(C)C(O)C2` (stereo not given): the “cell-cell fusion (z-score)” value was inactive: 1.49. Consider `CSCC[C@H](NC(=O)[C@H](Cc1c[nH]c2ccccc12)NC(=O)[C@H](C)NC(=O)OC(C)(C)C)C(=O)N[C@@H](CC(=O)O)C(=O)N[C@@H](Cc1ccccc1)C(N)=O`, for which the “cell-cell fusion (z-score)” value was inactive: 2.55. As to `CN(C)CCOC(c1ccccc1)c1ccccc1.Cn1c(=O)c2[nH]c(Cl)nc2n(C)c1=O`, the “cell-cell fusion (z-score)” value was inactive: 1.82.

For the compound `CN(N=O)C(=O)N[C@@H]1[C@@H](O)[C@H](O)[C@@H](CO)O[C@@H]1O` [Streptozocin], the “cell-cell fusion (z-score)” value is inactive: 0.631.

As for `CN(N=O)C(=O)N[C@@H]1[C@@H](O)[C@H](O)[C@@H](CO)O[C@@H]1O`, the “cell-cell fusion (z-score)” value is inactive: 2.41. In the case of `O=C(O)/C=C/C(=O)O.OCCOCCN1CCN(C2=Nc3ccccc3Sc3ccccc32)CC1.OCCOCCN1CCN(C2=Nc3ccccc3Sc3ccccc32)CC1` [Quetiapine Fumarate] it was inactive: 2.65; in that of `C[C@@H](O)[C@H]1C(=O)N2C(C(=O)O)=C(S[C@@H]3CN[C@H](CNS(N)(=O)=O)C3)[C@H](C)[C@H]12.O` [Doripenem Hydrate], inactive: 1.57; in that of `COCCOc1cc2ncnc(Cl)c2cc1OCCOC`, inactive: 2.13. In the case of `O=P(O)(O)C(O)(Cn1ccnc1)P(=O)(O)O` [Zoledronic Acid] it was inactive: 1.52; in that of `Nc1ccc(S(=O)(=O)Nc2nccs2)cc1`, inactive: 2.7. In the case of `CC(C)OC(=O)[C@H](C)N[P@](=O)(CO[C@H](C)Cn1cnc2c(N)ncnc21)Oc1ccccc1` [Tenofovir alafenamide] it was inactive: 3.04; in that of `CCCN1CCC[C@H](c2cccc(O)c2)C1.Cl` [R(+)-3PPP hydrochloride], inactive: 0.188; in that of `NC(=O)c1cn(Cc2c(F)cccc2F)nn1` [Rufinamide], inactive: 2.16.

For the compound `O=C(Nc1cccnc1)N1CCC(Cc2cccc(Oc3ccc(C(F)(F)F)cn3)c2)CC1`, the “cell-cell fusion (z-score)” value was inactive: -0.0524. In the case of `Cc1c(O)c(=O)ccn1C` it was inactive: 1.76; in that of `CCCCCCCCCCCCCCCCCCN(CCCCCCCCCCCCCCCCCC)CCCN(CCO)CCO` [Avridine], inactive: 3.01; in that of `COc1ccc(-c2ccc3cc(C(=O)O)ccc3c2)cc1C12CC3CC(CC(C3)C1)C2` [Adapalene], inactive: 1.46. In the case of `C[C@H](CCC(=O)O)[C@H]1CC[C@H]2[C@@H]3[C@@H](O)C[C@@H]4C[C@H](O)CC[C@]4(C)[C@H]3CC[C@]12C` [Ursodeoxycholic acid] it was inactive: 3.32.

Take `CC(S)C(=O)NCC(=O)O` (stereo not given) [Tiopronin]: the “cell-cell fusion (z-score)” value is inactive: 3.31. As for `C=CC1=C(C(=O)O)N2C(=O)[C@@H](NC(=O)/C(=N\O)c3csc(N)n3)[C@H]2SC1` [Cefdinir], the “cell-cell fusion (z-score)” value was inactive: 3.57. For `C[C@H](CCC(=O)O)[C@H]1CC[C@H]2[C@@H]3[C@H](O)C[C@@H]4C[C@H](O)CC[C@]4(C)[C@H]3CC[C@]12C` [Chenodeoxycholic acid], the “cell-cell fusion (z-score)” value was inactive: 3.69.

As to `C[N+]1(C)[C@@H]2C[C@@H](OC(=O)C(O)(c3cccs3)c3cccs3)C[C@H]1[C@@H]1O[C@@H]12.[Br-]` [Tiotropium bromide], the “cell-cell fusion (z-score)” value is inactive: 3.3. In the case of `C=CCc1cc(OC)c2c(c1OC)OCO2` it was inactive: 1.94. In the case of `CC(=O)O.CNC(=N)NCCC[C@H](N)C(=O)O` [NG-Monomethyl-L-arginine acetate] it was inactive: 2.26; in that of `Cn1c(CNc2ccc(C(=N)N)cc2)nc2cc(C(=O)N(CCC(=O)O)c3ccccn3)ccc21` [Dabigatran], inactive: 3.39. Take `Cc1cc2nc3ccc(N(C)C)cc3[s+]c2cc1N.[Cl-]`: the “cell-cell fusion (z-score)” value was inactive: 2.13. In the case of `COc1cc2c(cc1OC)[C@@H]1C(=O)c3ccc(OC)c(CC=C(C)C)c3O[C@@H]1CO2` it was inactive: -1.28; in that of `C#CCN[C@@H]1CCc2ccccc21` [Rasagiline], inactive: 2.87. In the case of `Nc1nc(=O)c2ncn(CCC(CO)CO)c2[nH]1` [Penciclovir] it was inactive: 1.79. In the case of `O=c1cc(CO)occ1O` it was inactive: 1.64; in that of `CN1C2C[C@H](OC(=O)[C@H](CO)c3ccccc3)C[C@@H]1[C@@H](O)C2`, inactive: 0.727; in that of `CCCN(CCC)CCc1cccc2c1CC(=O)N2.Cl` [Ropinirole hydrochloride], inactive: 1.69. As to `COc1ccccc1-c1cc(=O)c2c(OC)cccc2o1`, the “cell-cell fusion (z-score)” value was inactive: 1.76. Take `C[C@H]1CCN(C(=O)CC#N)C[C@@H]1N(C)c1ncnc2[nH]ccc12`: the “cell-cell fusion (z-score)” value was inactive: 0.86 and inactive: 0.121. In the case of `Nc1ccc(S(=O)(=O)Nc2ccnn2-c2ccccc2)cc1` [Sulfaphenazole] it was inactive: 0.655; in that of `Nc1ccc(S(=O)(=O)Nc2ccnn2-c2ccccc2)cc1`, inactive: 0.00714. In the case of `COc1ccccc1OCC(O)CN1CCN(CC(=O)Nc2c(C)cccc2C)CC1` (stereo not given) it was inactive: 2.76; in that of `CCOC(=O)c1cnc2c(cnn2CC)c1NN=C(C)C.Cl` [Etazolate hydrochloride], inactive: -0.506; in that of `NC(=O)N1c2ccccc2CC(=O)c2ccccc21` [Oxcarbazepine], inactive: 2.25. In the case of `C[C@]12CCC3c4ccc(O)cc4CCC3C1C[C@@H](O)[C@@H]2O` (stereo not given in full) it was inactive: 0.747; in that of `CC(=O)c1c(C)c2cnc(Nc3ccc(N4CCNCC4)cn3)nc2n(C2CCCC2)c1=O` [Palbociclib], inactive: 2.29; in that of `O=c1[nH]c(=O)n([C@H]2C[C@H](O)[C@@H](CO)O2)cc1F` [Floxuridine], inactive: 2.41.

In the case of `C#C[C@]1(O)CCC2C3CCC4=CC(=O)CC[C@@H]4C3CCC21CC` (stereo not given in full), the “cell-cell fusion (z-score)” value is inactive: 2. For the compound `N#Cc1ccnc(N2C(=O)CC[C@H]2C(=O)N(c2cncc(F)c2)[C@H](C(=O)NC2CC(F)(F)C2)c2ccccc2Cl)c1` [Ivosidenib], the “cell-cell fusion (z-score)” value is inactive: 0.603. In the case of `NC(=O)N1c2ccccc2CC(=O)c2ccccc21` it was inactive: 2.89. In the case of `N[C@@H](CS(=O)O)C(=O)O` [L-Cysteinesulfinic Acid] it was inactive: 1.49. As to `OC[C@H]1O[C@H](O[C@]2(CCl)O[C@H](CCl)[C@@H](O)[C@@H]2O)[C@H](O)[C@@H](O)[C@H]1Cl`, the “cell-cell fusion (z-score)” value is inactive: 1.14. In the case of `CCCCOCCOCCOCc1cc2c(cc1CCC)OCO2` it was inactive: 1.83; in that of `COc1c(O)cc(O)cc1O`, inactive: 2.23; in that of `CC1(C)S[C@@H]2C(N3C(=O)[C@@H](c4ccccc4)NC3(C)C)C(=O)N2[C@H]1C(=O)[O-].[K+]` (stereo not given in full), inactive: 0.693. In the case of `C[C@@H](O)[C@H]1C(=O)N2C(C(=O)O)=C(S[C@@H]3CN[C@H](C(=O)Nc4cccc(C(=O)[O-])c4)C3)[C@H](C)[C@H]12.[Na+]` [Ertapenem sodium] it was inactive: 2.26; in that of `CCc1cncnc1N1CCN(Cc2nc3cc(C(F)(F)F)ccc3[nH]2)CC1`, inactive: -0.815; in that of `C[C@]12CCC3C(CC[C@H]4C[C@@H](O)CC[C@]34C)C1CCC2=O` (stereo not given in full), inactive: 2.59. In the case of `CC(=O)[C@@]1(O)CC[C@H]2[C@@H]3CCC4=CC(=O)CC[C@]4(C)[C@H]3CC[C@@]21C` [17alpha-hydroxyprogesterone] it was inactive: 1.48; in that of `CC(COc1ccccc1)NC(C)[C@H](O)c1ccc(O)cc1.Cl` (stereo not given in full), inactive: 0.217; in that of `COc1cc(O)ccc1C(C)=O`, inactive: 2.2. `CO[C@H]1C[C@H]2CC[C@@H](C)[C@@](O)(O2)C(=O)C(=O)N2CCCC[C@H]2C(=O)O[C@H]([C@H](C)C[C@@H]2CC[C@H](OP(C)(C)=O)[C@H](OC)C2)CC(=O)[C@H](C)/C=C(\C)[C@@H](O)[C@@H](OC)C(=O)[C@H](C)C[C@H](C)/C=C/C=C/C=C/1C` [Ridaforolimus (Deforolimus, MK-8669)]: the “cell-cell fusion (z-score)” value was active: -9.98.

Turning to `Nc1ccc(S(=O)(=O)[N-]c2cnc3ccccc3n2)cc1.[Na+]`, the “cell-cell fusion (z-score)” value was inactive: 1.1.

As for `C[C@@H]1CC(=O)NN=C1c1ccc(NN=C(C#N)C#N)cc1`, the “cell-cell fusion (z-score)” value was inactive: 1.92.

`Cc1nccn1CC1CCc2c(c3ccccc3n2C)C1=O.Cl.O.O` (stereo not given) [Ondansetron hydrochloride]: the “cell-cell fusion (z-score)” value is inactive: 3.27.

Take `Br.Br.N=C(N)SCCN` [2-(2-Aminoethyl)isothiourea dihydrobromide]: the “cell-cell fusion (z-score)” value is inactive: 1.56.

For `Br.Br.N=C(N)SCCN`, the “cell-cell fusion (z-score)” value was inactive: 3.22.

On to `N[C@@H]1CCCC[C@H]1N.O=C1[O][Pt][O]C1=O` [Oxaliplatin], for which the “cell-cell fusion (z-score)” value is inactive: 1.26. In the case of `CCN(CCCc1ccccc1)CCCc1ccccc1.O=C(O)CC(O)(CC(=O)O)C(=O)O` it was inactive: 1.75; in that of `NCCc1c[nH]c2ccc(C(N)=O)cc12.O=C(O)/C=C\C(=O)O` [5-Carboxamidotryptamine maleate], inactive: -0.017; in that of `Cn1c(=O)c2[nH]c(-c3ccccc3)nc2n(C)c1=O` [1,3-Dimethyl-8-phenylxanthine], inactive: 2.41. In the case of `O=Cc1ccc(O)c(O)c1O` it was inactive: 2.6; in that of `CC1O[C@@H](Oc2c(-c3ccc(O)c(O)c3)oc3cc(O)cc(O)c3c2=O)[C@H](O)[C@H](O)[C@H]1O` (stereo not given in full), inactive: 2.81; in that of `CCOC(=O)O[C@]1(C(=O)COC(=O)CC)CC[C@H]2[C@@H]3CCC4=CC(=O)C=C[C@]4(C)[C@H]3[C@@H](O)C[C@@]21C`, inactive: 3.81.

For the origin of these results see the supplement of paper PMC8104966.
